At least one structure is not confirmed: it was looked up by name or label, or the drawing left a doubt.
Test system: patients with genetically-confirmed HD
Experiment: one year randomised placebo-controlled trial of ethyl-EPA in HD, total motor score (TMS) subscale of the UHDRS
Type: in vivo, human
Conditions: 2 g/day
Procedure: 135 patients with genetically-confirmed HD were entered into a one year trial. They were randomised to receive either 2 g/day of ethyl-EPA or an identical-appearing placebo. They were evaluated at baseline, six months and 12 months on the total motor score (TMS) subscale of the Unified Huntington's Disease Rating Scale (UHDRS). The UHDRS is the standard rating scale which is used to monitor the development of HD. The TMS is the component of the UHDRS which changes most reliably, rapidly and consistently and is therefore appropriate for monitoring the outcome of clinical trials. At the end of one year, change in TMS was compared in the placebo group and the ethyl-EPA group. […] However, when patients were stratified on the basis of their CAG repeat numbers, a dramatic benefit of ethyl-EPA was uncovered. […] Placebo patients with CAG repeat numbers 45 and below deteriorated by an average of 5.3%. In contrast, the same group of patients on ethyl-EPA improved over the year by 19.3%. This difference was highly statistically significant on either analysis of covariance or on chi square testing. […] Previously the best that had been hoped for in neurodegenerative diseases like HD was a slowing of deterioration rather than any actual improvement. […] Putting it another way, the treated patients had gained at least four and a half years of useful life.

Which “benefit versus placebo, patients with CAG repeat numbers of 45 or below” value (CAG repeats 45 or below (below 45)) does the source give for `CC/C=C\C/C=C\C/C=C\C/C=C\C/C=C\CCCC(=O)O` [EPA, eicosapentaenoic acid] here?
Its value is “large benefit”.

What about the “change in TMS versus placebo, patients with CAG repeat number of 46 or more” value (CAG repeats 46 or more) of the same molecule?
Its value is “does not show any difference at all”.

Reference: patent publication US20070148643A1, “Treatment of Huntington's Disease with EPA” (priority 2002, published 2007)
